{
  "source": "patent US4315018A",
  "about": "“Specific parasiticidal use of 2-benzamido-5-nitro-thiazole derivatives” (priority 1978, dated 1982)",
  "experiment": "Necropsy observations in treated lambs",
  "assay_type": "in vivo",
  "conditions": "at necroscopy",
  "experimental": "Seven lambs (Group 1, black) were given a single 100 mg/kg of body weight dose of the test material dissolved in a mixture of water and gum syrup (0.5 ml/kg of body weight) orally administered with a syringe.\nSeven lambs (Group 2, red) were given a single 50 mg/kg of body weight dose of the test material dissolved in a mixture of water and gum syrup (0.5 ml/kg of body weight) orally administered with a syringe.\n48 hours after treatment, necroscopies were performed.",
  "data": [
    {"smiles": "CC(=O)Oc1ccccc1C(=O)Nc1ncc([N+](=O)[O-])s1", "note": "[PH 5776, 2-(2'-acetoxy)-benzamido-5-nitro-thiazole]", "values": [
      {"measurement": "Coloration of the content of the rumen", "setting": "Group 1 lamb number 6, 100 mg/kg", "result": "highly colored yellow"},
      {"measurement": "Coloration of the content of the rumen", "setting": "Group 2 lamb number 5, 50 mg/kg", "result": "highly colored yellow"}
    ]}
  ]
}
